Literature values in patent publication US20180256601A1, “URSODEOXYCHOLIC ACID AND BRAIN DISORDERS” (priority 2015, published 2018).
At least one compound was matched to its structure with a doubt left.

Experiments:
[1] = tested on: parkin-deficient neuronal cell culture models of PD; details: 10 pM UDCA, as well as PINK1 parkin mutations
[2] = tested on: LRRK2G2019S transgenic flies; details: 2.5 μM UDCA
[3] = tested on: LRRK2G2019S mutant fibroblasts

C[C@H](CCC(=O)O)[C@H]1CC[C@H]2[C@@H]3[C@@H](O)C[C@@H]4C[C@H](O)CC[C@]4(C)[C@H]3CC[C@]12C [UDCA, Ursodeoxycholic Acid]
rescue of lower cellular ATP levels [1]: rescuing the lower cellular ATP levels | dopaminergic signaling [2]: profoundly rescued dopaminergic signaling | mitochondrial rescue ([3]; 10 nM UDCA, LRRK2G2019S fibroblasts (Mortiboys et al, 2015)): independent of whether the patient was a manifesting or non-manifesting carrier | rescue of cellular ATP levels ([3]; LRRK2G2019S mutant fibroblasts (Mortiboys et al, 2013)): rescued cellular ATP levels
